Source: publication PMC8081163

Amino acid sequences for entries named in this document (tags omitted). A change or cut given only in a name is not applied to a line headed by its entry.
UniProt Q61656: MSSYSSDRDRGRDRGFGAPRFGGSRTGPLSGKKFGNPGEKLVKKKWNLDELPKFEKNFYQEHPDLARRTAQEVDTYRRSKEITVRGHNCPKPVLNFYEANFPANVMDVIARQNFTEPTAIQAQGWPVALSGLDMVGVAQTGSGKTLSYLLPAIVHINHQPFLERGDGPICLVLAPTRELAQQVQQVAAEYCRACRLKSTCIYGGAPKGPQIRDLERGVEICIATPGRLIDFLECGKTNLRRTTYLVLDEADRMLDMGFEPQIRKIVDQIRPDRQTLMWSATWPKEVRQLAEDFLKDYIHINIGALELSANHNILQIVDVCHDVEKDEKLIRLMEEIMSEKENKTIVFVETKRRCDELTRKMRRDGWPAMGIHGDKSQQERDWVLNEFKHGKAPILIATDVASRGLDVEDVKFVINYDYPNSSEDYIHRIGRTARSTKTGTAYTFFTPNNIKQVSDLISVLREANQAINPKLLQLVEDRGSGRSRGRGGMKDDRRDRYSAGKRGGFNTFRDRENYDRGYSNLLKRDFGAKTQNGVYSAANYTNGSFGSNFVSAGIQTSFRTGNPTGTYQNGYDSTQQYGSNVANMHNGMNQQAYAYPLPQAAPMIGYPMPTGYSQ
UniProt Q8C3P7: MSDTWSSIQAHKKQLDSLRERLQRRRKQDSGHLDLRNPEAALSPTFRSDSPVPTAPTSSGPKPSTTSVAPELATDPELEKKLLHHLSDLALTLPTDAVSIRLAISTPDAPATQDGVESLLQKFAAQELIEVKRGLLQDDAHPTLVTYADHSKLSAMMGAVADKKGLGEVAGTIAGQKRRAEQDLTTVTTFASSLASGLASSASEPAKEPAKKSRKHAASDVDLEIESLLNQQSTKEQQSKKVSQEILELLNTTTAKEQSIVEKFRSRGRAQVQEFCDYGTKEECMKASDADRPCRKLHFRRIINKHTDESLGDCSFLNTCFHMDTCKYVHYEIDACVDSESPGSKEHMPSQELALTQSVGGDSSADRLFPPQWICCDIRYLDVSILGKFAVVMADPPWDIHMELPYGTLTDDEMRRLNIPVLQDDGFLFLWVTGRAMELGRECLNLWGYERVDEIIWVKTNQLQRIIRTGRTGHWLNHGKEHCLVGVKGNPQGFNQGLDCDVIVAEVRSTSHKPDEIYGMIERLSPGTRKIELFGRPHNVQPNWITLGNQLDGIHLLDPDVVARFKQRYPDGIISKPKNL

Biological target: DDX5 (endogenous, mouse cells) (mouse (endogenous in MEFs NIH/3T3 and macrophages J774A.1)) (UniProt Q61656)
Experiment: affinity purification with mass spectrometry

METTL3 (endogenous, mouse cells) (from UniProt Q8C3P7 1-580)
binding: binds

These are yes or no findings as the source states them, for the method shown. Binding seen in cells or lysates may run through a third protein. Here binding means that the protein was enriched with, or labelled near, the bait; the list need not be complete.
